Test system: FXR-regulated gene expression in liver and ileum
Assay: Mechanism of action: tissue RNA by RT-qPCR and RNAseq after single oral dose
Details: C57BL/6 mice liver RNAseq, 10 mg/kg Compound 1, 30 mg/kg OCA

Q: Which results are given for `Cn1cc(C(=O)O)c2ccc(N3CCC(OCc4c(-c5c(Cl)cccc5Cl)noc4C4CC4)CC3)cc21` [Compound 1]?
A: number of differentially expressed (NASH-related) genes modulated relative to vehicle control (6 hours after single oral dose, fold change ≥1.5): 500; number of global pathways enriched (p<0.05): 32

Source: patent US20210379040A1, “COMBINATION TREATMENT OF LIVER DISORDERS” (Terns Pharmaceuticals, Inc., priority 2020, published 2021)
